These are yes or no findings as the source states them, for the method shown. For some of these results: Binding seen in cells or lysates may run through a third protein. Some entries that bind do so weakly or less than the wild type. For some of these results: Where a sequence is shown, tags or fusion partners need not be part of it.
T1: GST–Nab2p NLS (S. cerevisiae) (UniProt P32505)
T1 sequence: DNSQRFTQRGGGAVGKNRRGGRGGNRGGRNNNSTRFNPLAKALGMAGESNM

Protein sequences, listed by entry. Tags and fused reporters are not part of them. Residues count along the entry.
UniProt Q92973: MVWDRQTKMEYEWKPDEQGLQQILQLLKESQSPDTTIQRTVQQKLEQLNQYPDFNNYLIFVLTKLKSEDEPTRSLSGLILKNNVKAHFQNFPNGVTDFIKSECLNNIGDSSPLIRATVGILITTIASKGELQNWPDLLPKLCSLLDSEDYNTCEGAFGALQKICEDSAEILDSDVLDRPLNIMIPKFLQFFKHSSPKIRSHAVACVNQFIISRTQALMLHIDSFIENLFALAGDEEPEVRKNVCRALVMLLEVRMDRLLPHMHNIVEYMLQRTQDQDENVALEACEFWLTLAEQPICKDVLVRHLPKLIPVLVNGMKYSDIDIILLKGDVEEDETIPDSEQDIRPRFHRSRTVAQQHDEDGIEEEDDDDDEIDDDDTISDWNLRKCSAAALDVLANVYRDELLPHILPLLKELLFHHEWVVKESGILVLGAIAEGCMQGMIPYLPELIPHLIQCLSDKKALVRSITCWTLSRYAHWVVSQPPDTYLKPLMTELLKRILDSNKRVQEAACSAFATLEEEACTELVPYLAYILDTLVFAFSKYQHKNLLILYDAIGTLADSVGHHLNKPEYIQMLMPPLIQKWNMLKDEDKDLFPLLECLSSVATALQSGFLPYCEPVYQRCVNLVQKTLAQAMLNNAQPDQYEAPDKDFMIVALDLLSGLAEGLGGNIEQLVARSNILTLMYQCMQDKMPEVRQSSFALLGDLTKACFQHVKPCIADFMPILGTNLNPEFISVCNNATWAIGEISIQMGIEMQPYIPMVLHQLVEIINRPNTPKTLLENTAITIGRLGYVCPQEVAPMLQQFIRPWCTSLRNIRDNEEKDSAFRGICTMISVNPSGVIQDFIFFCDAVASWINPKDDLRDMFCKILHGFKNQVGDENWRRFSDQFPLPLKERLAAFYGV
UniProt P09651, residues 309-357: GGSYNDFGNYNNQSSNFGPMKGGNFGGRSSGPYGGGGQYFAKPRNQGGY

T2: GST–Hrp1p NLS (S. cerevisiae) (UniProt Q99383)
T2 sequence: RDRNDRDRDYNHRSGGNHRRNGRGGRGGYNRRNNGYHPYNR

T3: GST–hnRNP M NLS (human) (UniProt P52272)
T3 sequence: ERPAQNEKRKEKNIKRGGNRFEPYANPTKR

T4: Kap104p (yeast (S. cerevisiae)) (UniProt P38217)
T4 sequence: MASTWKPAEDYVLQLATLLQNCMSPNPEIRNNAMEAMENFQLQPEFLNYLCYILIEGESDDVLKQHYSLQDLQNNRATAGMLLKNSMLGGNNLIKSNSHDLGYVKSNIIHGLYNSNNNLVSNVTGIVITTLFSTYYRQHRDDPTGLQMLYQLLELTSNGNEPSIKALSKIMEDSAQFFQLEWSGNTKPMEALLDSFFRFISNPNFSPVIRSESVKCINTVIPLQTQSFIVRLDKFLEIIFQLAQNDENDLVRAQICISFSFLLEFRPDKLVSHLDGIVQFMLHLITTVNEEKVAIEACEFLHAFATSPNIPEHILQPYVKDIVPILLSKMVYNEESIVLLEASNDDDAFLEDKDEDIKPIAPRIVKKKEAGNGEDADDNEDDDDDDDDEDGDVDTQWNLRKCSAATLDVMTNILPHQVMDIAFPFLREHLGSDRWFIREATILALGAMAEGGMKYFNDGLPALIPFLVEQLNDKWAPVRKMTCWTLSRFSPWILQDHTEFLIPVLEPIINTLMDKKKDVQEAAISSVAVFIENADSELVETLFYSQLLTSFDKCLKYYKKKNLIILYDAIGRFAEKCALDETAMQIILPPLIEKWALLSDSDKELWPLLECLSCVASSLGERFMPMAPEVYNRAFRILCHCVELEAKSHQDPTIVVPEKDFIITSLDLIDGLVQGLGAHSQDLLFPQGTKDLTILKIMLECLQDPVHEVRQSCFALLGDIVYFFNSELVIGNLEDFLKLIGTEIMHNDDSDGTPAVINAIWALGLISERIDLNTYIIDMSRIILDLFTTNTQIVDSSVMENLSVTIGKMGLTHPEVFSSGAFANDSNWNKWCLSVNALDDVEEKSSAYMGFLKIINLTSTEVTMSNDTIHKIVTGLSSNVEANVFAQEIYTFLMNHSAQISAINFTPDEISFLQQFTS


Each molecule was assayed against T1, GST–Nab2p NLS (S. cerevisiae) (assay: pull-down; Kapβ2 with immobilized Nab2p NLS and Hrp1p NLS, in the presence and absence of RanGTP; Coomassie (Figure S2)).

binding	Molecule
binds	Karyopherin β2 (from UniProt Q92973 1-898) (receptor)

What follows are molecules tested against T2, GST–Hrp1p NLS (S. cerevisiae) in the same assay as above.

binding	Molecule
binds	Karyopherin β2 (from UniProt Q92973 1-898) (receptor)

The molecules below were run against GST–hnRNP A1 NLS (human) (UniProt P09651) (assay: pull-down; ~30 μg Kap104p added to ~10 μg GST protein immobilized on 20 μl glutathione sepharose; washes with TB buffer (20 mM HEPES pH 7.3, 110 mM KAc, 2 mM MgAc, 1 mM EGTA, 2 mM DTT, 20% glycerol); second incubation with buffer or RanGTP (5-fold molar excess); SDS-PAGE, Coomassie; both purified).

Molecule	binding
Kap104p (receptor) MASTWKPAEDYVLQLATLLQNCMSPNPEIRNNAMEAMENFQLQPEFLNYLCYILIEGESDDVLKQHYSLQDLQNNRATAGMLLKNSMLGGNNLIKSNSHDLGYVKSNIIHGLYNSNNNLVSNVTGIVITTLFSTYYRQHRDDPTGLQMLYQLLELTSNGNEPSIKALSKIMEDSAQFFQLEWSGNTKPMEALLDSFFRFISNPNFSPVIRSESVKCINTVIPLQTQSFIVRLDKFLEIIFQLAQNDENDLVRAQICISFSFLLEFRPDKLVSHLDGIVQFMLHLITTVNEEKVAIEACEFLHAFATSPNIPEHILQPYVKDIVPILLSKMVYNEESIVLLEASNDDDAFLEDKDEDIKPIAPRIVKKKEAGNGEDADDNEDDDDDDDDEDGDVDTQWNLRKCSAATLDVMTNILPHQVMDIAFPFLREHLGSDRWFIREATILALGAMAEGGMKYFNDGLPALIPFLVEQLNDKWAPVRKMTCWTLSRFSPWILQDHTEFLIPVLEPIINTLMDKKKDVQEAAISSVAVFIENADSELVETLFYSQLLTSFDKCLKYYKKKNLIILYDAIGRFAEKCALDETAMQIILPPLIEKWALLSDSDKELWPLLECLSCVASSLGERFMPMAPEVYNRAFRILCHCVELEAKSHQDPTIVVPEKDFIITSLDLIDGLVQGLGAHSQDLLFPQGTKDLTILKIMLECLQDPVHEVRQSCFALLGDIVYFFNSELVIGNLEDFLKLIGTEIMHNDDSDGTPAVINAIWALGLISERIDLNTYIIDMSRIILDLFTTNTQIVDSSVMENLSVTIGKMGLTHPEVFSSGAFANDSNWNKWCLSVNALDDVEEKSSAYMGFLKIINLTSTEVTMSNDTIHKIVTGLSSNVEANVFAQEIYTFLMNHSAQISAINFTPDEISFLQQFTS	no binding

What follows are molecules tested against T3, GST–hnRNP M NLS (human) in the same assay as above.

Molecule	binding
Kap104p (receptor) MASTWKPAEDYVLQLATLLQNCMSPNPEIRNNAMEAMENFQLQPEFLNYLCYILIEGESDDVLKQHYSLQDLQNNRATAGMLLKNSMLGGNNLIKSNSHDLGYVKSNIIHGLYNSNNNLVSNVTGIVITTLFSTYYRQHRDDPTGLQMLYQLLELTSNGNEPSIKALSKIMEDSAQFFQLEWSGNTKPMEALLDSFFRFISNPNFSPVIRSESVKCINTVIPLQTQSFIVRLDKFLEIIFQLAQNDENDLVRAQICISFSFLLEFRPDKLVSHLDGIVQFMLHLITTVNEEKVAIEACEFLHAFATSPNIPEHILQPYVKDIVPILLSKMVYNEESIVLLEASNDDDAFLEDKDEDIKPIAPRIVKKKEAGNGEDADDNEDDDDDDDDEDGDVDTQWNLRKCSAATLDVMTNILPHQVMDIAFPFLREHLGSDRWFIREATILALGAMAEGGMKYFNDGLPALIPFLVEQLNDKWAPVRKMTCWTLSRFSPWILQDHTEFLIPVLEPIINTLMDKKKDVQEAAISSVAVFIENADSELVETLFYSQLLTSFDKCLKYYKKKNLIILYDAIGRFAEKCALDETAMQIILPPLIEKWALLSDSDKELWPLLECLSCVASSLGERFMPMAPEVYNRAFRILCHCVELEAKSHQDPTIVVPEKDFIITSLDLIDGLVQGLGAHSQDLLFPQGTKDLTILKIMLECLQDPVHEVRQSCFALLGDIVYFFNSELVIGNLEDFLKLIGTEIMHNDDSDGTPAVINAIWALGLISERIDLNTYIIDMSRIILDLFTTNTQIVDSSVMENLSVTIGKMGLTHPEVFSSGAFANDSNWNKWCLSVNALDDVEEKSSAYMGFLKIINLTSTEVTMSNDTIHKIVTGLSSNVEANVFAQEIYTFLMNHSAQISAINFTPDEISFLQQFTS	binds

These molecules were tested against T4, Kap104p (yeast (S. cerevisiae)) (assay: condition: 90–350 μM MBP-NLS titrated into 9–35 μM Kap104p; ITC; 90–350 μM MBP-NLS titrated into 9–35 μM Kap104p in the cell; 20 °C; 20 mM Tris pH 7.5, 100 mM NaCl, 2 mM β-mercaptoethanol, 10% glycerol; 35 injections of 8 μl; single-site model; both purified).

binding	Molecule
no binding	RDRNDRDRDYNHRSGGNHRRNGRGGRGGYNRRNNGYHPGNR (domain or fragment, UniProt Q99383 494-534) [MBP–Hrp1p NLS Y532G]
no binding	RDRNDRDRDYNHRSGGNHRRNGRGGRGGYNRRNNGYHPKNR (domain or fragment, UniProt Q99383 494-534) [MBP–Hrp1p NLS Y532K]
no binding	RDRNDRDRDYNHRSGGNHRRNGRGGRGGYNRRNNGYHPSNR (domain or fragment, UniProt Q99383 494-534) [MBP–Hrp1p NLS Y532S]
no binding	RDRNDRDRDYNHRSGGNHRRNGRGGRGGYNRRNNGYHPRNR (domain or fragment, UniProt Q99383 494-534) [MBP–Hrp1p NLS Y532R]
no binding	RDRNDRDRDYNHRSGGNHRRNGRGGRGGYNRRNNGYHPPNR (domain or fragment, UniProt Q99383 494-534) [MBP–Hrp1p NLS Y532P]
no binding	RDRNDRDRDYNHRSGGNHRRNGRGGRGGYNRRNNGYHPQNR (domain or fragment, UniProt Q99383 494-534) [MBP–Hrp1p NLS Y532Q]
no binding	RDRNDRDRDYNHRSGGNHRRNGRGGRGGYNRRNNGYHPNNR (domain or fragment, UniProt Q99383 494-534) [MBP–Hrp1p NLS Y532N]
no binding	RDRNDRDRDYNHRSGGNHRRNGRGGRGGYNRRNNGYHPCNR (domain or fragment, UniProt Q99383 494-534) [MBP–Hrp1p NLS Y532C]
no binding	RDRNDRDRDYNHRSGGNHRRNGRGGRGGYNRRNNGYHPENR (domain or fragment, UniProt Q99383 494-534) [MBP–Hrp1p NLS Y532E]
no binding	RDRNDRDRDYNHRSGGNHRRNGRGGRGGYNRRNNGYHPLNR (domain or fragment, UniProt Q99383 494-534) [MBP–Hrp1p NLS Y532L]
no binding	RDRNDRDRDYNHRSGGNHRRNGRGGRGGYNRRNNGYHPTNR (domain or fragment, UniProt Q99383 494-534) [MBP–Hrp1p NLS Y532T]
no binding	RDRNDRDRDYNHRSGGNHRRNGRGGRGGYNRRNNGYHPVNR (domain or fragment, UniProt Q99383 494-534) [MBP–Hrp1p NLS Y532V]
no binding	RDRNDRDRDYNHRSGGNHRRNGRGGRGGYNRRNNGYHPANR (domain or fragment, UniProt Q99383 494-534) [MBP–Hrp1p NLS Y532A]
no binding	RDRNDRDRDYNHRSGGNHRRNGRGGRGGYNRRNNGYHPWNR (domain or fragment, UniProt Q99383 494-534) [MBP–Hrp1p NLS Y532W]
no binding	RDRNDRDRDYNHRSGGNHRRNGRGGRGGYNRRNNGYHPINR (domain or fragment, UniProt Q99383 494-534) [MBP–Hrp1p NLS Y532I]
no binding	RDRNDRDRDYNHRSGGNHRRNGRGGRGGYNRRNNGYHPDNR (domain or fragment, UniProt Q99383 494-534) [MBP–Hrp1p NLS Y532D]

What follows are molecules tested against T4, Kap104p (yeast (S. cerevisiae)) (assay: ITC; 90–350 μM MBP-NLS titrated into 9–35 μM Kap104p in the cell; 20 °C; 20 mM Tris pH 7.5, 100 mM NaCl, 2 mM β-mercaptoethanol, 10% glycerol; 35 injections of 8 μl; single-site model; both purified).

Molecule	binding
MBP–Nab2p NLS L239P (domain or fragment, UniProt P32505 201-251) DNSQRFTQRGGGAVGKNRRGGRGGNRGGRNNNSTRFNPPAKALGMAGESNM	binds
RDRNDRDRDYNHRSGGNHRRNGRGGRGGYNRRNNGYHAANR (domain or fragment, UniProt Q99383 494-534) [MBP–Hrp1p NLS 531PY532/AA]	no binding (tested: likely weaker than 10 μM)
